Measured values as given in the supplement of paper PMC7125110.
± gives the standard error. The uncertainty is large for many entries.

B1: glmS ribozyme (parent)
chain: AUAAAAGCGCCAGAACUACAGAAAUGUAGUUGACGAGGAGGAGGUUUAUCGAAUUUUCGGCGGAUGCCUCCAAA

Variants of: B1
Assay: self-cleavage kobs at 40 uM GlcN6P; higher = faster cleavage; RNA array
Conditions: with glucosamine-6-phosphate
Method in brief: (§1)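 kcat and KM were obtained from weighted Michaelis–Menten fits across concentrations of kobs values. Those came from one- or two-exponential decay fits to per-tile medians normalised to baseline and to non-cleaving reference variants. The variants were barcoded ribozymes transcribed in situ by E. coli RNA polymerase on sequenced MiSeq chips and tracked through a hybridised Cy3 probe at 37 °C, with 40 μM to 10 mM glucosamine-6-phosphate in HEPES/KCl/Mg(OAc)2 buffer flowed in.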

| Variant | self-cleavage kobs at 40 uM GlcN6P |
| --- | --- |
| A14U U47G U69A | 2.68e-05 ± 2.1e-05 s⁻¹ |
| A14U U69A | 1.55e-05 ± 1.3e-05 s⁻¹ |
| A15C A42G U47G A53G | 1.68e-05 ± 1.4e-05 s⁻¹ |
| A15C A53U C71G | 2.88e-05 ± 2.1e-05 s⁻¹ |
| A15C C71G | 1.25e-05 ± 1.1e-05 s⁻¹ |
| A15C G29A C50U C70G | 3.37e-05 ± 2.6e-05 s⁻¹ |
| A15C G40U | 1.89e-05 ± 1.1e-05 s⁻¹ |
| A15C U46G | 4.41e-05 ± 2.4e-05 s⁻¹ |
| A15G A53U U57G C68G | 4.05e-05 ± 3.4e-05 s⁻¹ |
| A15G A53U U69G | 2.9e-05 ± 2.8e-05 s⁻¹ |
| A15G C16A C70U | 3.05e-05 ± 1.9e-05 s⁻¹ |
| A15G C16G C50G U54C | 2.49e-05 ± 2.3e-05 s⁻¹ |
| A15G C50G | 3.49e-05 ± 2.3e-05 s⁻¹ |
| A15G G51A U69G | 3.07e-05 ± 2.3e-05 s⁻¹ |
| A15U G29A G32A | 3.67e-05 ± 2e-05 s⁻¹ |
| A15U U56C | 1.75e-05 ± 9.1e-06 s⁻¹ |
| C16A A42G C68G C70U | 3.8e-05 ± 2.2e-05 s⁻¹ |
| C16A C68G | 1.43e-05 ± 1.2e-05 s⁻¹ |
| C16A G35U C68U | 5.06e-05 ± 3e-05 s⁻¹ |
| C16G C34U A42U C50G | 3.06e-05 ± 2.3e-05 s⁻¹ |
| C16G G38U C50G U54C | 3.83e-05 ± 2.6e-05 s⁻¹ |
| C16U A53U C67G | 2.61e-05 ± 1.6e-05 s⁻¹ |
| C16U A53U U65G | 2.79e-05 ± 2.6e-05 s⁻¹ |
| C16U C34U G62A C68G | 3.45e-05 ± 2.8e-05 s⁻¹ |
| C16U C58U C68G | 3.15e-05 ± 1.7e-05 s⁻¹ |
| C16U G32U | 2.52e-05 ± 1.3e-05 s⁻¹ |

Some of the entries above in another layout.
Variant	self-cleavage kobs at 40 uM GlcN6P
A14U U47G U69A	2.68e-05 ± 2.1e-05 s⁻¹
A14U U69A	1.55e-05 ± 1.3e-05 s⁻¹
A15C A42G U47G A53G	1.68e-05 ± 1.4e-05 s⁻¹
A15C C71G	1.25e-05 ± 1.1e-05 s⁻¹
A15C G29A C50U C70G	3.37e-05 ± 2.6e-05 s⁻¹
A15C G40U	1.89e-05 ± 1.1e-05 s⁻¹
A15C U46G	4.41e-05 ± 2.4e-05 s⁻¹
A15G A53U U57G C68G	4.05e-05 ± 3.4e-05 s⁻¹
A15G A53U U69G	2.9e-05 ± 2.8e-05 s⁻¹
A15G C16A C70U	3.05e-05 ± 1.9e-05 s⁻¹
A15G C16G C50G U54C	2.49e-05 ± 2.3e-05 s⁻¹
A15G C50G	3.49e-05 ± 2.3e-05 s⁻¹
A15U G29A G32A	3.67e-05 ± 2e-05 s⁻¹
A15U U56C	1.75e-05 ± 9.1e-06 s⁻¹
C16A A42G C68G C70U	3.8e-05 ± 2.2e-05 s⁻¹
C16A C68G	1.43e-05 ± 1.2e-05 s⁻¹
C16A G35U C68U	5.06e-05 ± 3e-05 s⁻¹
C16G G38U C50G U54C	3.83e-05 ± 2.6e-05 s⁻¹
C16U A53U C67G	2.61e-05 ± 1.6e-05 s⁻¹
C16U A53U U65G	2.79e-05 ± 2.6e-05 s⁻¹
C16U C34U G62A C68G	3.45e-05 ± 2.8e-05 s⁻¹
C16U C58U C68G	3.15e-05 ± 1.7e-05 s⁻¹

The results go on:

| Variant | self-cleavage kobs at 40 uM GlcN6P |
| --- | --- |
| C16U G62U U69A | 3.03e-05 ± 2.5e-05 s⁻¹ |
| C16U U69G | 2.12e-05 ± 1.3e-05 s⁻¹ |
| G21U G41C C70U | 3.85e-05 ± 2.4e-05 s⁻¹ |
| G29A C50G U54A | 3.17e-05 ± 2.4e-05 s⁻¹ |
| G29A U45G | 2.63e-05 ± 2.6e-05 s⁻¹ |
| G29A U55G | 1.93e-05 ± 1.5e-05 s⁻¹ |
| G29C A36C C70A | 4.12e-05 ± 2.5e-05 s⁻¹ |
| G29C A53C | 1.98e-05 ± 1.6e-05 s⁻¹ |
| G29C U69G | 1.56e-05 ± 1.5e-05 s⁻¹ |
| G29U C34A G37U C67G | 3.84e-05 ± 2.3e-05 s⁻¹ |
| G29U C50G A64C | 2.47e-05 ± 2.4e-05 s⁻¹ |
| G29U C67A U69A | 3.01e-05 ± 1.8e-05 s⁻¹ |
| G29U U69A | 2.15e-05 ± 1.4e-05 s⁻¹ |
| U30A G38U U69A | 2.89e-05 ± 2.1e-05 s⁻¹ |
| U30C A42G | 2.53e-05 ± 2.1e-05 s⁻¹ |
| U30C G59C C61U C70A | 4.23e-05 ± 2.5e-05 s⁻¹ |
| U30G C68U | 1.94e-05 ± 1.3e-05 s⁻¹ |
| U30G U31C A39U | 2.11e-05 ± 1.8e-05 s⁻¹ |
| U30G U65G | 2.28e-05 ± 1.2e-05 s⁻¹ |
| U31A A33C G35A U69G | 0.00056 ± 0.00032 s⁻¹ |
| U31A A36U U47G C70G | 3.13e-05 ± 2.2e-05 s⁻¹ |
| U31A C50U C70G | 2.91e-05 ± 2.6e-05 s⁻¹ |
| U31C A53C | 2.38e-05 ± 1.4e-05 s⁻¹ |
| U31C C71G | 2.97e-05 ± 1.5e-05 s⁻¹ |
| U31C G51C U69G | 3.81e-05 ± 2.5e-05 s⁻¹ |
| U31C U47C C70U | 2.84e-05 ± 2.8e-05 s⁻¹ |

Looked up above:
In self-cleavage kobs at 40 uM GlcN6P, C16U U69G is listed with 2.12e-05 ± 1.3e-05 s⁻¹
In self-cleavage kobs at 40 uM GlcN6P, U31C C71G is listed with 2.97e-05 ± 1.5e-05 s⁻¹

The listing continues.

| Variant | self-cleavage kobs at 40 uM GlcN6P |
| --- | --- |
| U31C U47G C70G | 2.61e-05 ± 2.2e-05 s⁻¹ |
| U31C U56G C67U | 2.44e-05 ± 1.7e-05 s⁻¹ |
| U31G A36C C70G | 3.9e-05 ± 2.8e-05 s⁻¹ |
| U31G A36U C50A C71G | 5.86e-05 ± 3.4e-05 s⁻¹ |
| U31G C70A | 2.86e-05 ± 2.6e-05 s⁻¹ |
| U31G C70G | 1.83e-05 ± 1.6e-05 s⁻¹ |
| U31G G32A A64G | 3.44e-05 ± 2.6e-05 s⁻¹ |
| U31G G38U U69A C71U | 3.2e-05 ± 2.3e-05 s⁻¹ |
| U31G U45C | 4.35e-05 ± 2.4e-05 s⁻¹ |
| U31G U69G | 3.21e-05 ± 1.8e-05 s⁻¹ |
| G32A A52G C70A | 4.8e-05 ± 3.3e-05 s⁻¹ |
| G32A C67U | 1.43e-05 ± 8.8e-06 s⁻¹ |
| G32A C71A | 2.12e-05 ± 1.5e-05 s⁻¹ |
| G32C U54A C68G | 3.17e-05 ± 2.9e-05 s⁻¹ |
| G32U C34U A36G G51A C70G | 3.38e-05 ± 2.2e-05 s⁻¹ |
| G32U C67A | 1.55e-05 ± 1.4e-05 s⁻¹ |
| G32U C70U | 1.41e-05 ± 1e-05 s⁻¹ |
| G32U U55G | 2.75e-05 ± 2.4e-05 s⁻¹ |
| G32U U69A | 2.74e-05 ± 1.8e-05 s⁻¹ |
| C34G U47G C58A C68A | 2.75e-05 ± 2.6e-05 s⁻¹ |
| G35A G38A C71G | 2.98e-05 ± 2.6e-05 s⁻¹ |
| G35A U57G C68G | 4.08e-05 ± 2.4e-05 s⁻¹ |
| G35C G37A C68G | 3.74e-05 ± 2.8e-05 s⁻¹ |
| G35U A42U U45G U56G | 3.12e-05 ± 3.1e-05 s⁻¹ |
| A36C C50G | 4.05e-05 ± 2.3e-05 s⁻¹ |

Variants of: B1
Assay: self-cleavage kobs at 10000 uM GlcN6P; higher = faster cleavage; RNA array
Conditions: with glucosamine-6-phosphate
Method in brief: as §1

| Variant | self-cleavage kobs at 10000 uM GlcN6P |
| --- | --- |
| A15G C50G | 2.54e-05 ± 2.1e-05 s⁻¹ |
| A15G G51A U69G | 2.21e-05 ± 1.7e-05 s⁻¹ |
| C16G G38U C50G U54C | 2.34e-05 ± 2.1e-05 s⁻¹ |
| G29A C50G U54A | 2.84e-05 ± 2e-05 s⁻¹ |
| G29U C50G A64C | 2.56e-05 ± 1.9e-05 s⁻¹ |
| U30A G38U U69A | 2.37e-05 ± 1.9e-05 s⁻¹ |
| G32U C34U A36G G51A C70G | 2.37e-05 ± 2.3e-05 s⁻¹ |
| C34G U47G C58A C68A | 3.14e-05 ± 1.8e-05 s⁻¹ |
| A36C C50G | 2.48e-05 ± 2e-05 s⁻¹ |

Variants of: B1
Assay: self-cleavage kobs at 640 uM GlcN6P; higher = faster cleavage; RNA array
Conditions: with glucosamine-6-phosphate
Method in brief: as §1

| Variant | self-cleavage kobs at 640 uM GlcN6P |
| --- | --- |
| A15G G51A U69G | 4.77e-05 ± 3.2e-05 s⁻¹ |

Variants of: B1
Assay: self-cleavage kobs at 160 uM GlcN6P; higher = faster cleavage; RNA array
Conditions: with glucosamine-6-phosphate
Method in brief: as §1

| Variant | self-cleavage kobs at 160 uM GlcN6P |
| --- | --- |
| C16A C68G | 9.56e-05 ± 8.4e-05 s⁻¹ |
| C16U C34U G62A C68G | 3.96e-05 ± 2.7e-05 s⁻¹ |
| G29U U69A | 3.11e-05 ± 1.7e-05 s⁻¹ |
| U31C C71G | 0.00279 ± 0.0018 s⁻¹ |
| U31G C70A | 3.54e-05 ± 3.1e-05 s⁻¹ |
| G32U C67A | 1.75e-05 ± 1.4e-05 s⁻¹ |
| G32U U69A | 3.55e-05 ± 1.9e-05 s⁻¹ |

Variants of: B1
Assay: self-cleavage kobs at 2500 uM GlcN6P; higher = faster cleavage; RNA array
Conditions: with glucosamine-6-phosphate
Method in brief: as §1

| Variant | self-cleavage kobs at 2500 uM GlcN6P |
| --- | --- |
| U31G A36C C70G | 5.41e-05 ± 4.4e-05 s⁻¹ |
| G32U C34U A36G G51A C70G | 4e-05 ± 2.4e-05 s⁻¹ |
